Experimental data: PubChem BioAssay AID1259425 (University of Nebraska Medical Center, 2018)
The whole screen tested about 14,000 reagents; below is a random part of them. Some reagents were tested in more than one well and are listed for each. Further read-outs or replicates are left out here. The record does not give: the time to read-out.

Assay: 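Seek colon cancer weak points whose silencing resembles KSR1 loss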 (primary screen)
System: HCT116 human colon cancer cells
Reagent: siRNA pool against human genes, 50 nM siRNA
Measurement: 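mRNA of six signature genes measured together by branched-DNA assay after 50 nM siRNA pool, blank removed, divided by geometric mean of two housekeeping genes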
Scale: BNIP3L mRNA: higher = more BNIP3L transcript after knockdown; NDRG1 mRNA: higher = more NDRG1 transcript after knockdown

TMEM8B [SID364000111] gave BNIP3L mRNA, set 1 = 0.147; NDRG1 mRNA, set 1 = 0.103. POMT1 [SID363997871] scored BNIP3L mRNA, set 1 = 0.181; NDRG1 mRNA, set 1 = 0.348. For NDUFC2 [SID363995520] the deposit lists BNIP3L mRNA, set 1 = 0.111; NDRG1 mRNA, set 1 = 0.465. Silencing of SPEF1 [SID363999479] resulted in: BNIP3L mRNA, set 1 = 0.125; NDRG1 mRNA, set 1 = 0.168. Against FBXO42 [SID364005212], the entry reads BNIP3L mRNA, set 1 = 0.122; NDRG1 mRNA, set 1 = 0.113. With knock-down of HRG [SID363991743], the screen gave BNIP3L mRNA, set 1 = 0.147; NDRG1 mRNA, set 1 = 0.339.

SNAP25 [SID363994226] gave BNIP3L mRNA, set 1 = 0.198; NDRG1 mRNA, set 1 = 0.333. RAB5B [SID363994024] scored BNIP3L mRNA, set 1 = 0.124; NDRG1 mRNA, set 1 = 0.0653. Silencing of MBD1 [SID363993564] gave: BNIP3L mRNA, set 1 = 0.0734; NDRG1 mRNA, set 1 = 0.158. GRK3 [SID363996087] showed BNIP3L mRNA, set 1 = 0.0778; NDRG1 mRNA, set 1 = 0.0888. After knock-down of GRK3 [SID363996087], the record shows BNIP3L mRNA, set 1 = 0.0984; NDRG1 mRNA, set 1 = 0.0998. Silencing of ICOS [SID363998041] came out at: BNIP3L mRNA, set 1 = 0.186; NDRG1 mRNA, set 1 = 0.164.

2 neighbouring reagents from above, for reference:
POMT1 [SID363997871] — BNIP3L mRNA, set 1 = 0.181; NDRG1 mRNA, set 1 = 0.348
NDUFC2 [SID363995520] — BNIP3L mRNA, set 1 = 0.111; NDRG1 mRNA, set 1 = 0.465

The results go on.
BTNL2 [SID364001432] scored BNIP3L mRNA, set 1 = 0.124; NDRG1 mRNA, set 1 = 0.382. MED7 [SID363995265] scored BNIP3L mRNA, set 1 = 0.111; NDRG1 mRNA, set 1 = 1.11. With knock-down of SNAP29 [SID363995738], the record shows BNIP3L mRNA, set 1 = 0.162; NDRG1 mRNA, set 1 = 0.303. Silencing of SKIL [SID363996320] came out at: BNIP3L mRNA, set 1 = 0.17; NDRG1 mRNA, set 1 = 0.524. After knock-down of SOD2 [SID363991952] the results were BNIP3L mRNA, set 1 = 0.0752; NDRG1 mRNA, set 1 = 0.0965. DNAI2 [SID364002624] showed BNIP3L mRNA, set 1 = 0.0757; NDRG1 mRNA, set 1 = 0.248.

For PTER [SID364003400], the values are BNIP3L mRNA, set 1 = 0.179; NDRG1 mRNA, set 1 = 0.208. FAM32A [SID363998594] gave BNIP3L mRNA, set 1 = 0.0619; NDRG1 mRNA, set 1 = 0.126. After knock-down of DUSP14 [SID363997757], the screen gave BNIP3L mRNA, set 1 = 0.138; NDRG1 mRNA, set 1 = 0.176. After knock-down of CTNNAL1 [SID363994861], the record shows BNIP3L mRNA, set 1 = 0.137; NDRG1 mRNA, set 1 = 0.136. TRAF3IP2 [SID364004685] scored BNIP3L mRNA, set 1 = 0.236; NDRG1 mRNA, set 1 = 0.14. Silencing of DISP1 [SID364004259] resulted in: BNIP3L mRNA, set 1 = 0.285; NDRG1 mRNA, set 1 = 0.936.

After knock-down of MFAP5 [SID363994579], the record shows BNIP3L mRNA, set 1 = 0.0727; NDRG1 mRNA, set 1 = 0.273. Depletion of ASIP [SID363992895] resulted in: BNIP3L mRNA, set 1 = 0.0521; NDRG1 mRNA, set 1 = 0.228. For IRS2 [SID363994816], the entry reads BNIP3L mRNA, set 1 = 0.0944; NDRG1 mRNA, set 1 = 0.18. Against FKBP6 [SID363994682] the deposit lists BNIP3L mRNA, set 1 = 0.0577; NDRG1 mRNA, set 1 = 0.279.
